# The list shows a part of the results. Many values rest on one well or one pass, so single values are uncertain.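 Imaging used 1,536-well plates; nuclei positive for cleaved PARP by antibody were divided by total DNA-stained nuclei to yield the apoptosis fraction. Doses for screening kept most cells viable, and cell lines differ markedly in resting and induced cleaved-PARP levels.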
# System: SkMel30
# Assay: cleaved PARP positive nuclei fraction relative to DMSO control; melanoma cells; higher = more apoptosis
# Conditions: library dose: low library concentration; 72 h
row,Compound,cleaved PARP positive nuclei fraction [%]
1,"CO[C@H]1C[C@@H]2CC[C@@H](C)[C@@](O)(O2)C(=O)C(=O)N2CCCC[C@H]2C(=O)O[C@H]([C@H](C)C[C@@H]2CC[C@@H](OCCO)[C@H](OC)C2)CC(=O)[C@H](C)/C=C(\C)[C@@H](O)[C@@H](OC)C(=O)[C@H](C)C[C@H](C)/C=C/C=C/C=C/1C [everolimus] + CO[C@@H]1[C@H](N(C)C(=O)c2ccccc2)C[C@H]2O[C@]1(C)n1c3ccccc3c3c4c(c5c6ccccc6n2c5c31)C(=O)NC4 [Midostaurin] (first compound 0.02 µM, partner dose 0.08 µM)",100
2,"CO[C@H]1C[C@@H]2CC[C@@H](C)[C@@](O)(O2)C(=O)C(=O)N2CCCC[C@H]2C(=O)O[C@H]([C@H](C)C[C@@H]2CC[C@@H](OCCO)[C@H](OC)C2)CC(=O)[C@H](C)/C=C(\C)[C@@H](O)[C@@H](OC)C(=O)[C@H](C)C[C@H](C)/C=C/C=C/C=C/1C [everolimus] + CCN(CC)CCCCNc1ncc2cc(-c3cc(OC)cc(OC)c3)c(NC(=O)NC(C)(C)C)nc2n1 [PD173074] (first compound 0.02 µM, partner dose 0.1 µM)",32.6
3,"CO[C@H]1C[C@@H]2CC[C@@H](C)[C@@](O)(O2)C(=O)C(=O)N2CCCC[C@H]2C(=O)O[C@H]([C@H](C)C[C@@H]2CC[C@@H](OCCO)[C@H](OC)C2)CC(=O)[C@H](C)/C=C(\C)[C@@H](O)[C@@H](OC)C(=O)[C@H](C)C[C@H](C)/C=C/C=C/C=C/1C [everolimus] + Cc1cc(N2CCOCC2)cc2[nH]c(-c3c(NC[C@@H](O)c4cccc(Cl)c4)cc[nH]c3=O)nc12 [BMS536924] (first compound 0.02 µM, partner dose 0.2 µM)",124

# — the supplement of paper PMC4604168 (melanoma cell lines)
